We go through 78 compounds from the supplement of paper PMC8732350.

Where “and” joins values, the source holds several entries; their conditions need not be identical. Equal values may be shown once. Where a name gives a salt, the structure may show the parent alone. ± gives the standard deviation of the averaged measurements. The list shows a part of the results. This data set is noisy: repeats of one test often differ as much as different tests do.

The experiment concerns A549. Put plainly: surface PD-L1 immunofluorescence intensity relative to IFN-gamma-only control (ratio); higher = more PD-L1 expression. The conditions noted are these: 10 µM; exposure time 24 h; IFN-gamma 100 ng/mL.
Take `NC[C@H]1O[C@H](O[C@H]2[C@H](O)[C@@H](O[C@H]3O[C@H](CO)[C@@H](O)[C@H](N)[C@H]3O)[C@H](N)C[C@@H]2N)[C@H](N)C[C@@H]1O` [Tobramycin]: the “surface PD-L1 immunofluorescence intensity” value is 0.968 ± 0.031.
In the case of `C=CCOc1ccccc1OCC(O)CNC(C)C` (stereo not drawn) [Oxprenolol hydrochloride], the “surface PD-L1 immunofluorescence intensity” value was 1.02.
Take `Cc1c(N)c(=O)n(-c2ccccc2)n1C` [Ampyrone]: the “surface PD-L1 immunofluorescence intensity” value is 0.942.
Regarding `Nc1nc2c(cnn2CCc2ccccc2)c2nc(-c3ccco3)nn12`, the “surface PD-L1 immunofluorescence intensity” value was determined as 0.996.
In the case of `CCOC(=O)/C=C(C)/C=C/C=C(C)/C=C/c1c(C)cc(OC)c(C)c1C` [Etretinate] it was 1.06; in that of `CC(C)(C)c1cc(NC(=O)Nc2ccc(-c3cn4c(n3)sc3cc(OCCN5CCOCC5)ccc34)cc2)no1` [Quizartinib (AC220)], 1.13.
As for `CCN(CC)C(=O)Nc1ccc(OCC(O)CNC(C)(C)C)c(C(C)=O)c1` (stereo not drawn) [Celiprolol HCl], the “surface PD-L1 immunofluorescence intensity” value amounted to 1.08.
For `COc1cc(OC)c(NC(=O)Nc2cc(C)on2)cc1Cl`, the “surface PD-L1 immunofluorescence intensity” value amounted to 1.04.
On to `CNC(=O)c1ccc(N2C(=S)N(c3ccc(C#N)c(C(F)(F)F)c3)C(=O)C2(C)C)cc1F` [MDV3100 (Enzalutamide)], for which the “surface PD-L1 immunofluorescence intensity” value is 1.08.
On to `N[C@H]1CONC1=O` [(S)-(-)-Cycloserine], for which the “surface PD-L1 immunofluorescence intensity” value turned out to be 1.04.
In the case of `CCCCC1C(=O)N(c2ccccc2)N(c2ccc(O)cc2)C1=O` (stereo not drawn) [Oxyphenbutazone] it was 0.947; in that of `O=c1c(O)c(-c2ccc(O)cc2)oc2cc(O)cc(O)c12` [Kaempferol], 1.03.
In the case of `N#C/C(=C(/N)Sc1ccc(N)cc1)c1ccccc1C(F)(F)F` it was 0.988 and 0.979.
Consider `CC(C)(CO)[C@@H](O)C(=O)NCCC(=O)O` [Pantothenic acid (pantothenate)], for which the “surface PD-L1 immunofluorescence intensity” value came to 0.987.
As to `CCN(CC)C(=O)C1(c2ccccc2)CC1CN` (stereo not drawn) [Milnacipran HCl], the “surface PD-L1 immunofluorescence intensity” value stood at 0.945.
`Cc1cc(C(C)(C)C)cc(C)c1CC1=NCCN1` [Xylometazoline hydrochloride]: the “surface PD-L1 immunofluorescence intensity” value amounted to 1.
As to `CCN(CCCCOC(=O)c1ccc(OC)c(OC)c1)C(C)Cc1ccc(OC)cc1` (stereo not drawn) [Mebeverine hydrochloride], the “surface PD-L1 immunofluorescence intensity” value was 0.996.
For `COc1cc(NC(=O)c2ccccn2)ccc1Cl`, the “surface PD-L1 immunofluorescence intensity” value was determined as 1.
For the compound `O=P(O)(O)C(O)(Cn1ccnc1)P(=O)(O)O` [Zoledronic Acid (Zoledronate)], the “surface PD-L1 immunofluorescence intensity” value turned out to be 0.957.
`O=c1nc2ccccc2c2n1CC(CN1CCN(c3ccccc3)CC1)N2` (stereo not drawn): the “surface PD-L1 immunofluorescence intensity” value worked out at 1.03.
As to `CC#CCn1c(N2CCC[C@@H](N)C2)nc2c1c(=O)n(Cc1nc(C)c3ccccc3n1)c(=O)n2C` [Linagliptin (BI-1356)], the “surface PD-L1 immunofluorescence intensity” value came out at 1.02.
As for `CCN(CC)CCOCCOC(=O)C1(c2ccccc2)CCCC1` [Carbetapentane citrate], the “surface PD-L1 immunofluorescence intensity” value is 0.998 ± 0.032.
Consider `Nc1c(O)cc(O)cc1C=Cc1ccc(O)cc1` [Aminoresveratrol sulfate], for which the “surface PD-L1 immunofluorescence intensity” value was found to be 1.04.
In the case of `COc1ccc(Cl)cc1C(=O)NCCc1ccc(S(=O)(=O)NC(=O)NC2CCCCC2)cc1` [Glibenclamide] it was 0.975 ± 0.094; in that of `COc1ccc(Cl)cc1C(=O)NCCc1ccc(S(=O)(=O)NC(=O)NC2CCCCC2)cc1` [Glyburide], 0.872; in that of `Nc1nc(=O)n([C@@H]2CS[C@H](CO)O2)cc1F` [(-)-Emtricitabine], 0.909.
For the compound `COc1cc(SC)ccc1C(=O)N1CCC(Cc2ccccc2)CC1`, the “surface PD-L1 immunofluorescence intensity” value stood at 0.951.
For `CC#C[C@]1(O)CC[C@H]2[C@@H]3CCC4=CC(=O)CCC4=C3[C@@H](c3ccc(N(C)C)cc3)C[C@@]21C` [Mifepristone], the “surface PD-L1 immunofluorescence intensity” value came to 1.03 ± 0.023.
Consider `CC#C[C@]1(O)CC[C@H]2[C@@H]3CCC4=CC(=O)CCC4=C3[C@@H](c3ccc(N(C)C)cc3)C[C@@]21C` [Mifepristone (Mifeprex)], for which the “surface PD-L1 immunofluorescence intensity” value amounted to 0.992.
For the compound `COC(=O)C1=CO[C@@H](O)[C@@H]2C(CO)=CC[C@H]12` [Genipin], the “surface PD-L1 immunofluorescence intensity” value is 0.794.
`Cc1nc(C(=O)NCC(=O)O)c(O)c2ccc(Oc3ccccc3)cc12`: the “surface PD-L1 immunofluorescence intensity” value worked out at 1.08.
In the case of `CCCOc1ccccc1-c1nc2[nH]nnc2c(=O)[nH]1` [Zaprinast] it was 1; in that of `CCC[C@@H]1C[C@@H](C(=O)N[C@@H]([C@H]2O[C@H](SC)[C@H](OP(=O)(O)O)[C@@H](O)[C@H]2O)[C@H](C)Cl)N(C)C1` [Clindamycin phosphate], 1.12.
As for `CC(C)[C@H](N)C(=O)OCCOCn1cnc2c(=O)nc(N)[nH]c21` [Valacyclovir hydrochloride], the “surface PD-L1 immunofluorescence intensity” value turned out to be 1.03.
For the compound `CC(C)N(CC[C@H](c1ccccc1)c1cc(CO)ccc1O)C(C)C`, the “surface PD-L1 immunofluorescence intensity” value turned out to be 1.03.
In the case of `CN1CCN2c3ncccc3Cc3ccccc3C2C1` (stereo not drawn) [Mirtazepine] it was 0.959; in that of `CN1CCN2c3ncccc3Cc3ccccc3C2C1` (stereo not drawn) [Mirtazapine], 1.02.
As to `CN(C(=O)CN(CCO)CC(=O)N(C)C(C)(C)Cc1ccccc1)C(C)(C)Cc1ccccc1` [Oxethazaine], the “surface PD-L1 immunofluorescence intensity” value worked out at 0.903.
In the case of `COC(=O)N/N=C/c1c[n+]([O-])c2ccccc2[n+]1[O-]` [Carbadox] it was 1.08; in that of `CC1(C)O[C@@H]2C[C@H]3[C@@H]4C[C@H](F)C5=CC(=O)C=C[C@]5(C)[C@@]4(F)[C@@H](O)C[C@]3(C)[C@]2(C(=O)CO)O1` [Fluocinolone acetonide], 0.912; in that of `CC1(C)O[C@@H]2C[C@H]3[C@@H]4C[C@H](F)C5=CC(=O)C=C[C@]5(C)[C@@]4(F)[C@@H](O)C[C@]3(C)[C@]2(C(=O)CO)O1` [Fluocinolone acetonide (Flucort-N)], 0.82.
Take `COc1cc(NS(=O)(=O)c2ccc(N)cc2)ncn1` [Sulfamonomethoxine]: the “surface PD-L1 immunofluorescence intensity” value was determined as 1.03.
On to `Cc1cc(C)nc(NS(=O)(=O)c2ccc(N)cc2)n1` [Sulfamethazine sodium salt], for which the “surface PD-L1 immunofluorescence intensity” value came to 0.942.
As to `Cc1cc(C)nc(NS(=O)(=O)c2ccc(N)cc2)n1` [Sulfamethazine], the “surface PD-L1 immunofluorescence intensity” value stood at 1.02.
For `Cc1ccc(OCC(O)C(C)NC(C)C)c2c1CCC2` (stereo not drawn) [ICI-118,551 hydrochloride], the “surface PD-L1 immunofluorescence intensity” value is 0.845.
As for `CCn1c(=O)c2c(nc(/C=C/c3ccc(OC)c(OC)c3)n2C)n(CC)c1=O` [Istradefylline (KW-6002)], the “surface PD-L1 immunofluorescence intensity” value turned out to be 1.01.
Take `CCCn1c(=O)c(C)cn2nc(N)nc12`: the “surface PD-L1 immunofluorescence intensity” value amounted to 1.02.
In the case of `CC1=NN(c2ccc(C)c(C)c2)C(=O)/C1=N\Nc1cccc(-c2cccc(C(=O)O)c2)c1O`, the “surface PD-L1 immunofluorescence intensity” value came to 0.971.
As to `c1ccc2cc(C3=NCCN3)ncc2c1` [BU 226 hydrochloride], the “surface PD-L1 immunofluorescence intensity” value came out at 0.989.
In the case of `C[C@@H]1C/C=C/C=C/C=C/C=C/[C@H](O[C@@H]2O[C@H](C)[C@@H](O)[C@H](N)[C@@H]2O)C[C@@H]2O[C@](O)(C[C@@H](O)C[C@H]3O[C@@H]3/C=C/C(=O)O1)C[C@H](O)[C@H]2C(=O)O` [Natamycin (Pimaricin)], the “surface PD-L1 immunofluorescence intensity” value was found to be 1.08.
In the case of `CC(C(O)c1ccc(O)cc1)N1CCC(Cc2ccccc2)CC1` (stereo not drawn) [Ifenprodil hemitartrate], the “surface PD-L1 immunofluorescence intensity” value came to 1.01.
With `CC(C(O)c1ccc(O)cc1)N1CCC(Cc2ccccc2)CC1` (stereo not drawn) [Ifenprodil tartrate], the “surface PD-L1 immunofluorescence intensity” value came out at 0.988.
`O=C(/C=C/c1ccc(O)c(O)c1)O[C@H](Cc1ccc(O)c(O)c1)C(=O)O` [Rosmarinic acid]: the “surface PD-L1 immunofluorescence intensity” value was found to be 0.973 ± 0.044.
In the case of `C1CCC(N=C(NC23CC4CC(CC(C4)C2)C3)N2CCOCC2)CC1` it was 0.963; in that of `COC(=O)[C@H](Cc1ccccc1)NC(=O)[C@@H](N)CC(=O)O` [Aspartame], 1.15.
In the case of `NC(=O)N/N=C/c1ccc(Oc2ccc(F)cc2)cc1` it was 0.939; in that of `C[C@]12CC[C@@H]3c4ccc(O)cc4C[C@@H](CCCCCCCCC[S+]([O-])CCCC(F)(F)C(F)(F)F)[C@H]3[C@@H]1CC[C@@H]2O` (stereo partly drawn) [Fulvestrant], 1.04 ± 0.26; in that of `C[C@]12CC[C@@H]3c4ccc(O)cc4C[C@@H](CCCCCCCCC[S+]([O-])CCCC(F)(F)C(F)(F)F)[C@H]3[C@@H]1CC[C@@H]2O` (stereo partly drawn) [Fulvestrant (Faslodex)], 1.22.
In the case of `COc1cc(CNC(=O)CCCC/C=C/C(C)C)ccc1O` [Capsaicin] it was 1.016 ± 0.0093; in that of `CO/N=C(\C(=O)N[C@@H]1C(=O)N2C(C(=O)O)=C(COC(C)=O)CS[C@H]12)c1csc(N)n1` [Cefotaxime sodium salt], 0.937; in that of `C=C[C@](C)(O)CC[C@@H]1[C@@]2(C)CCCC(C)(C)[C@@H]2CC[C@@]1(C)O` [Sclareol], 1.06.
Regarding `COC1CCC(C(=O)c2ccc3nc4c(cc3c2)CCCO4)CC1` (stereo not drawn), the “surface PD-L1 immunofluorescence intensity” value worked out at 0.906.
With `Clc1ccc2nsnc2c1NC1=NCCN1` [Tizanidine HCl], the “surface PD-L1 immunofluorescence intensity” value came to 1.04.
For `Clc1ccc2nsnc2c1NC1=NCCN1` [Tizanidine hydrochloride], the “surface PD-L1 immunofluorescence intensity” value came to 1.01.
`Cc1cc2cc3c(C)cc(=O)oc3c(C)c2o1` [Trioxsalen]: the “surface PD-L1 immunofluorescence intensity” value is 1.
In the case of `CC(=O)Nc1nnc(S(N)(=O)=O)s1` [Acetazolamide] it was 0.85.
With `Nc1nc(OCc2cc(Br)cs2)c2[nH]cnc2n1` [Lomeguatrib], the “surface PD-L1 immunofluorescence intensity” value worked out at 0.864.
In the case of `CCCCOc1ccc(C(=O)Nc2ccc(F)cc2F)cc1` it was 0.975; in that of `CC(C)Oc1ccc2c(=O)c(-c3ccccc3)coc2c1` [Ipriflavone], 1.01.
As to `Cc1cc(C(C)Nc2ccccc2)c2nc(N3CCOCC3)cc(=O)n2c1` (stereo not drawn), the “surface PD-L1 immunofluorescence intensity” value is 0.957.
For the compound `CC(C)c1ccccc1S(=O)(=O)c1cc(N)c2ncccc2c1[N+](=O)[O-]`, the “surface PD-L1 immunofluorescence intensity” value was found to be 0.995.
Take `CCOC(=O)C1=C(N)Oc2ccc(Br)cc2C1C(C#N)C(=O)OCC` (stereo not drawn): the “surface PD-L1 immunofluorescence intensity” value is 1.05 ± 0.08.
In the case of `CCCCOc1cc(C(=O)OCCN(CC)CC)ccc1N` [Benoxinate hydrochloride] it was 0.937; in that of `CC(=O)Nc1c(I)c(C(=O)N[C@H]2C(O)O[C@H](CO)[C@@H](O)[C@@H]2O)c(I)c(N(C)C(C)=O)c1I` (stereo partly drawn) [Metrizamide], 1.08; in that of `CCN(CC)CCNC(=O)c1ccc(N)cc1` [Procainamide hydrochloride], 1.07.
For the compound `NC[C@H](O)c1ccc(O)c(O)c1` [Noradrenaline bitartrate monohydrate (Levophed)], the “surface PD-L1 immunofluorescence intensity” value is 0.924.
In the case of `O=C(O)c1ccnc(C(=O)O)c1` [2,4-Pyridinedicarboxylic Acid] it was 1.05; in that of `Cc1ccccc1N1CCN(S(=O)(=O)C[C@]23CC[C@H](C[C@@H]2NC(=O)[C@@H](N)CCS(C)(=O)=O)C3(C)C)CC1` [L-368,899 hydrochloride], 0.926.
